From article doi:10.1101/526020 come the findings set out here.

Chains of the proteins cited; added tags and fusions are not shown. Lines headed by an entry give the natural chain unless they say otherwise; changes in a name come on top.
UniProt P03915: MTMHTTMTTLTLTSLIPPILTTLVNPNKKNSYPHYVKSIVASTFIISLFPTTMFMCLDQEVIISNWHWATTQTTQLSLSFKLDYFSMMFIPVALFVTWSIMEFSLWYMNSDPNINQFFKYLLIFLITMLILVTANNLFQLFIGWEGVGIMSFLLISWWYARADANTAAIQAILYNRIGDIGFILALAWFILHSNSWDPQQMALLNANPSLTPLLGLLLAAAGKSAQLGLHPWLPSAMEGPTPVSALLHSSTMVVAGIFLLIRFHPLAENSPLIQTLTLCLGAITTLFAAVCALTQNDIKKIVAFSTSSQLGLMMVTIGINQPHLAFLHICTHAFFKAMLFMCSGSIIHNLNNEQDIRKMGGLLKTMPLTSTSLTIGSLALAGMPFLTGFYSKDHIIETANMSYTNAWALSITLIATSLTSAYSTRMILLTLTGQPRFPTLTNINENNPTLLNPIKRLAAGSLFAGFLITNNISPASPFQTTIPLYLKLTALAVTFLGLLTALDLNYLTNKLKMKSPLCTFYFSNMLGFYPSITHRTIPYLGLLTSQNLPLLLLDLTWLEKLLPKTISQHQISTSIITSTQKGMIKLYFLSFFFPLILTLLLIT
UniProt P03891: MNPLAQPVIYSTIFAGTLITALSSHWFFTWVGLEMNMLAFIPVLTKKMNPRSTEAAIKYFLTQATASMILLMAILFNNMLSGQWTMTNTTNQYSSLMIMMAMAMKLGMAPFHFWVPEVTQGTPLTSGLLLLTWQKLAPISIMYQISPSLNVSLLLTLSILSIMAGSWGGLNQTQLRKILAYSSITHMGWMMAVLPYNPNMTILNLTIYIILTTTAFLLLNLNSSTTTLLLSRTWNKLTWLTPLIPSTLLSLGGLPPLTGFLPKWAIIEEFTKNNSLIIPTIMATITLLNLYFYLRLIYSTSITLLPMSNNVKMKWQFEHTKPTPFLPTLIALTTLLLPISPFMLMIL

No constants are given. Whether binding was seen depends on the method and setting. In cells and extracts the contact can be indirect. Some entries that bind do so weakly or less than the wild type.

The target in the experiment is ND5-F1,2 construct (human complex I subunit ND5) (human) (UniProt P03915). Put plainly: split reporter.

In the case of “ND2-I57M in the F3 mDHFR fragment-containing construct (from UniProt P03891 1-347)”, the binding entry is on record as “binds”. To “ND2-N150D in the F3 mDHFR fragment-containing construct (from UniProt P03891 1-347)” belongs “binds”.
